Values from PubChem BioAssay AID504764 (Drosophila RNAi Screening Center, 2011)

Aim: 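Knock-downs that raise or lower a Notch target reporter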 (primary screen)
System: Drosophila Kc167 cells
Reagent: long dsRNA against Drosophila genes
Time to read-out: about 5 days (4 days dsRNA, then 24 h after transfection)
Treatment: transfection of constitutively active membrane-tethered Notch lacking the extracellular domain, read 24 h later
Measurement: 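Firefly luciferase from an E(spl)m3 reporter with active Notch, plus control-promoter and uninduced reporter wells for normalisation; unnormalised counts, duplicate wells a and b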
Scale: induced reporter light, run 1, well a and induced reporter light, run 1, well b: higher = more light from the Notch target reporter with active Notch; control promoter light, run 1, well a and control promoter light, run 1, well b: higher = more light from the viral control promoter (cell number, transfection, viability); uninduced reporter light, run 1, well a: higher = more light from the Notch target reporter without active Notch
Active means: 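Wells with low control signal or poorly matching duplicates excluded; duplicates averaged; per source plate, z beyond ±2 for induced/control log2 ratio or beyond ±1.8 for induced/uninduced marks a hit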
Meaning of the calls: active = modifier hit (raised or lowered Notch signal); inactive = not a hit
In all, the deposit lists about 22,000 reagents; below is a random part of those that have a named target and a result. Of all reagents, 403 (1.9%) were called active. 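Unnormalised raw counts per well; ratio z-scores behind the hit calls and whether each hit raises or lowers signal are not deposited.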 Not stated in the record: the amount of reagent.

Depletion of CG31272 [DRSC16058] gave: induced reporter light, run 1, well a = 30370; induced reporter light, run 1, well b = 22550; control promoter light, run 1, well a = 29785; control promoter light, run 1, well b = 27775; uninduced reporter light, run 1, well a = 1505; inactive.
Knock-down of CG7634 [DRSC11843] came out at: induced reporter light, run 1, well a = 1.00e5; induced reporter light, run 1, well b = 1.08e5; control promoter light, run 1, well a = 98320; control promoter light, run 1, well b = 73125; uninduced reporter light, run 1, well a = 5920; inactive.
Against CG11808 [DRSC06088], the entry reads induced reporter light, run 1, well a = 1.02e5; induced reporter light, run 1, well b = 1.03e5; control promoter light, run 1, well a = 1.96e5; control promoter light, run 1, well b = 2.18e5; uninduced reporter light, run 1, well a = 10650; inactive.
With knock-down of Iswi [DRSC07446], the record shows induced reporter light, run 1, well a = 1.02e5; induced reporter light, run 1, well b = 78430; control promoter light, run 1, well a = 1.40e5; control promoter light, run 1, well b = 99140; uninduced reporter light, run 1, well a = 7530; inactive.
After knock-down of PNPase [DRSC14304], the record shows induced reporter light, run 1, well a = 1.92e5; induced reporter light, run 1, well b = 1.81e5; control promoter light, run 1, well a = 2.66e5; control promoter light, run 1, well b = 3.07e5; uninduced reporter light, run 1, well a = 15185; inactive.
Knock-down of CG32241 [DRSC08100] resulted in: induced reporter light, run 1, well a = 2.12e5; induced reporter light, run 1, well b = 1.63e5; control promoter light, run 1, well a = 2.01e5; control promoter light, run 1, well b = 1.99e5; uninduced reporter light, run 1, well a = 13550; inactive.
Against futsch [DRSC17688], the values are induced reporter light, run 1, well a = 67670; induced reporter light, run 1, well b = 81195; control promoter light, run 1, well a = 96035; control promoter light, run 1, well b = 85720; uninduced reporter light, run 1, well a = 5640; inactive.
For futsch [DRSC17949], the entry reads induced reporter light, run 1, well a = 1.10e5; induced reporter light, run 1, well b = 1.09e5; control promoter light, run 1, well a = 1.77e5; control promoter light, run 1, well b = 2.38e5; uninduced reporter light, run 1, well a = 8632; inactive.
Depletion of futsch [DRSC17952] resulted in: induced reporter light, run 1, well a = 1.38e5; induced reporter light, run 1, well b = 1.62e5; control promoter light, run 1, well a = 1.94e5; control promoter light, run 1, well b = 2.26e5; uninduced reporter light, run 1, well a = 9850; inactive.
After knock-down of futsch [DRSC18543], the screen gave induced reporter light, run 1, well a = 1.22e5; induced reporter light, run 1, well b = 1.43e5; control promoter light, run 1, well a = 2.66e5; control promoter light, run 1, well b = 1.98e5; uninduced reporter light, run 1, well a = 9720; inactive.
With knock-down of CG15812 [DRSC08479] the results were induced reporter light, run 1, well a = 1.46e5; induced reporter light, run 1, well b = 1.43e5; control promoter light, run 1, well a = 2.47e5; control promoter light, run 1, well b = 2.51e5; uninduced reporter light, run 1, well a = 10230; inactive.
CG40498 [DRSC07786] showed induced reporter light, run 1, well a = 87250; induced reporter light, run 1, well b = 1.11e5; control promoter light, run 1, well a = 1.20e5; control promoter light, run 1, well b = 93345; uninduced reporter light, run 1, well a = 8955; inactive.
For ATPsynC [DRSC15236] the deposit lists induced reporter light, run 1, well a = 45985; induced reporter light, run 1, well b = 56970; control promoter light, run 1, well a = 1.14e5; control promoter light, run 1, well b = 1.15e5; uninduced reporter light, run 1, well a = 4310; active.
Ssb-c31a [DRSC03443] showed induced reporter light, run 1, well a = 1.48e5; induced reporter light, run 1, well b = 1.48e5; control promoter light, run 1, well a = 91790; control promoter light, run 1, well b = 1.06e5; uninduced reporter light, run 1, well a = 20260; inactive.
Silencing of Corp [DRSC17771] resulted in: induced reporter light, run 1, well a = 1.91e5; induced reporter light, run 1, well b = 1.67e5; control promoter light, run 1, well a = 2.11e5; control promoter light, run 1, well b = 2.09e5; uninduced reporter light, run 1, well a = 11810; inactive.
Against pbl [DRSC11381], the entry reads induced reporter light, run 1, well a = 53685; induced reporter light, run 1, well b = 36860; control promoter light, run 1, well a = 49655; control promoter light, run 1, well b = 20565; uninduced reporter light, run 1, well a = 3865; inactive.
For Timp [DRSC17082] the deposit lists induced reporter light, run 1, well a = 1.32e5; induced reporter light, run 1, well b = 1.38e5; control promoter light, run 1, well a = 1.19e5; control promoter light, run 1, well b = 93710; uninduced reporter light, run 1, well a = 12260; inactive.
After knock-down of Ir52b [DRSC06263], the record shows induced reporter light, run 1, well a = 1.29e5; induced reporter light, run 1, well b = 1.20e5; control promoter light, run 1, well a = 1.63e5; control promoter light, run 1, well b = 1.46e5; uninduced reporter light, run 1, well a = 9640; inactive.

Entries above called active:
ATPsynC [DRSC15236] | induced reporter light, run 1, well a = 45985; induced reporter light, run 1, well b = 56970; control promoter light, run 1, well a = 1.14e5; control promoter light, run 1, well b = 1.15e5; uninduced reporter light, run 1, well a = 4310; activity call = active
